Results taken from the supplement of paper PMC7666118.
The list shows a part of the results.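 Rule for the calls: active = dose-dependent thermal stabilisation significant by F-test of dose-response against flat model at 10% FDR; inactive = not significant.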

By UniProt entry, the sequences of proteins in these tests, tags left out. Where a name states a change or a piece, a line headed by the entry shows the natural chain unless it says otherwise.
UniProt Q9Y217: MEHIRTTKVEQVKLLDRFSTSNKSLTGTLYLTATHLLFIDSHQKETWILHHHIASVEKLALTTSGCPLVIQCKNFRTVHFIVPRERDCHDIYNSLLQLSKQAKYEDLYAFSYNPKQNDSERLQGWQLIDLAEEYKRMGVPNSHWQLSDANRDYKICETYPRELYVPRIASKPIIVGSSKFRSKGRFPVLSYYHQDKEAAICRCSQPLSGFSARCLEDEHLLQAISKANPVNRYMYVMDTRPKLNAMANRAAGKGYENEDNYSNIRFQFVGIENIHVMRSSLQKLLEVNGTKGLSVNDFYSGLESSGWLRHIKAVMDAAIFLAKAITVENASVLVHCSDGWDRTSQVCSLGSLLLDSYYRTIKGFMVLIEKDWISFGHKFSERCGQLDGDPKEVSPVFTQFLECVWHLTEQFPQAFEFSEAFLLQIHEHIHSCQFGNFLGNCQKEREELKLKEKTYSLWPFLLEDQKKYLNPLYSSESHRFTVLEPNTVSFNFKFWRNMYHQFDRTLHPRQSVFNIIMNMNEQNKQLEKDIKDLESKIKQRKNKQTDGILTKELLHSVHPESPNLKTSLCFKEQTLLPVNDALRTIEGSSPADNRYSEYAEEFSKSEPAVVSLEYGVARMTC
UniProt P52564: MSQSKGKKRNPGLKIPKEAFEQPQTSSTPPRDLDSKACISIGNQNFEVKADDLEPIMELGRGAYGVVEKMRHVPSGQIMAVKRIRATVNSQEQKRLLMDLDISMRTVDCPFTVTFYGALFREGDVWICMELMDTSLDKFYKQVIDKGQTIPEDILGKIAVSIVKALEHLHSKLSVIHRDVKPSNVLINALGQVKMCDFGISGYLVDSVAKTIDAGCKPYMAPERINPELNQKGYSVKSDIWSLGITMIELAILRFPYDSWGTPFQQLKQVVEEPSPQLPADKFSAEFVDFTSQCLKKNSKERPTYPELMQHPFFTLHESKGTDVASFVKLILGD
UniProt Q16539, whole entry: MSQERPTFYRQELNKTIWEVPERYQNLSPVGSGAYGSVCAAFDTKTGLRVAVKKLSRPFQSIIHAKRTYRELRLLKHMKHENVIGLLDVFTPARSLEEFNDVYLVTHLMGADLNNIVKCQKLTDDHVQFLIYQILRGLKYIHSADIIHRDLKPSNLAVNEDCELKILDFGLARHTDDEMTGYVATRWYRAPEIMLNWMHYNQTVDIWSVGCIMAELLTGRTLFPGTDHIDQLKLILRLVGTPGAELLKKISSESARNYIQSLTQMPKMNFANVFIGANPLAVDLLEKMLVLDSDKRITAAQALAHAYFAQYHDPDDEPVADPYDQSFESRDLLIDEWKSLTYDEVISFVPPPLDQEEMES
UniProt Q969H8: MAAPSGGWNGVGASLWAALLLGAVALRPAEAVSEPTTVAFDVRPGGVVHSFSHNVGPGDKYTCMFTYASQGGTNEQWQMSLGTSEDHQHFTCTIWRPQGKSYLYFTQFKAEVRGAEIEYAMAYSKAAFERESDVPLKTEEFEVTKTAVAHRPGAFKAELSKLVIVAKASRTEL
UniProt Q96BX8: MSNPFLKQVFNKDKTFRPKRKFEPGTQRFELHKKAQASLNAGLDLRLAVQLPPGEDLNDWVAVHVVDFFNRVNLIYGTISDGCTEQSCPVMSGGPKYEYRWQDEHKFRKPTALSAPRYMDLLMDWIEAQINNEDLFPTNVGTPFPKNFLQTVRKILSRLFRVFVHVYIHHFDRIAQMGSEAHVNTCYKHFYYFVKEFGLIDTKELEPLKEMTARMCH
UniProt P53602: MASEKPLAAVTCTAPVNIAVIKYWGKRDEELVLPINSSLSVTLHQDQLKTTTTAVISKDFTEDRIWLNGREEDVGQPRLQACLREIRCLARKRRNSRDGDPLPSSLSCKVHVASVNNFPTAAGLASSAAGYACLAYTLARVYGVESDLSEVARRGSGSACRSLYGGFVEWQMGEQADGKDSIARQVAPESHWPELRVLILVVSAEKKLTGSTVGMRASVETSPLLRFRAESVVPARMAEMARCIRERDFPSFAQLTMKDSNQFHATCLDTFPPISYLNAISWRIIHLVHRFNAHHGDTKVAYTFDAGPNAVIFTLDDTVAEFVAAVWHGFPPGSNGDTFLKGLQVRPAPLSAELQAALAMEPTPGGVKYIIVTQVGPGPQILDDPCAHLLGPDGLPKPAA
UniProt Q9Y333: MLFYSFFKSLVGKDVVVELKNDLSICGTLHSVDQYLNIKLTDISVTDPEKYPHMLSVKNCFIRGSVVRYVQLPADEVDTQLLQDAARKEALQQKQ
UniProt P62310: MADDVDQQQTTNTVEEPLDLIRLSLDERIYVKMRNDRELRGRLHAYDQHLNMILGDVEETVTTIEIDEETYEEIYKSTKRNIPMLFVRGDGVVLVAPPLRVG
UniProt P82909: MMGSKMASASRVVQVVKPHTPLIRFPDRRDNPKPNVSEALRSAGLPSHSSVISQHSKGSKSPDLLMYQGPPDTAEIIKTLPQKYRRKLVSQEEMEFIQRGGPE
UniProt Q9NPJ6: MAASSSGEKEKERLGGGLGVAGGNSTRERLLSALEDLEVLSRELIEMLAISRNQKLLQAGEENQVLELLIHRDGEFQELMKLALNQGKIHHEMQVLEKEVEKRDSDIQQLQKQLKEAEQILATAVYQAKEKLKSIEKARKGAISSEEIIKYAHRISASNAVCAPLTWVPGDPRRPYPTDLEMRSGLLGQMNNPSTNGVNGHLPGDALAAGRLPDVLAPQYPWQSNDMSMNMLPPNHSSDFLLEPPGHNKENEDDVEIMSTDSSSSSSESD
UniProt Q9H8S9: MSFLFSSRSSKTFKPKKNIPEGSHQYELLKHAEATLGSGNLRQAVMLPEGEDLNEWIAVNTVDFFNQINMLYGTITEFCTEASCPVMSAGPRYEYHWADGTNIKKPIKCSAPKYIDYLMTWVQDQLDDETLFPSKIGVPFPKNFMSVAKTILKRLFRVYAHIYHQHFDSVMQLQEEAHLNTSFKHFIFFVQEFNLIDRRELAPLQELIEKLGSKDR
UniProt Q8TCA0: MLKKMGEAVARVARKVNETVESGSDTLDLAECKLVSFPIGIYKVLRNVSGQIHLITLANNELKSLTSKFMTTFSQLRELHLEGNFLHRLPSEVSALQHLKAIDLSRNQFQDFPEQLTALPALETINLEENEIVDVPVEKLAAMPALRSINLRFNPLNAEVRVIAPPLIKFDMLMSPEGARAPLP
UniProt Q6P1Q9: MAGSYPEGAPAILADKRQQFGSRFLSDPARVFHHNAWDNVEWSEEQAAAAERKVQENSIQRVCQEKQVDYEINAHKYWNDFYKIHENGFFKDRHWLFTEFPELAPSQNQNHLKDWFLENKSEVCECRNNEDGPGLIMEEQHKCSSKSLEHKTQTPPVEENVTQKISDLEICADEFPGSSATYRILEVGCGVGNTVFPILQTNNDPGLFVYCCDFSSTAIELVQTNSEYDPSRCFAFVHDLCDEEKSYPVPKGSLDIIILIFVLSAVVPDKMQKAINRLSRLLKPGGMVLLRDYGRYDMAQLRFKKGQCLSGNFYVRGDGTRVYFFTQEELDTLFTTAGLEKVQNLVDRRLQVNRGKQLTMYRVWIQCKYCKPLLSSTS
UniProt P14649: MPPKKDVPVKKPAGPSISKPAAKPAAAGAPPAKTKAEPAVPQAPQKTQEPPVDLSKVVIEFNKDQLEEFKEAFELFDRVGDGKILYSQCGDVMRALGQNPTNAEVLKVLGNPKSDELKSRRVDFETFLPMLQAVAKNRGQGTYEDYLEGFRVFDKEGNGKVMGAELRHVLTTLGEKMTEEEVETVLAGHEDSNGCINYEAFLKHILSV
UniProt O15151: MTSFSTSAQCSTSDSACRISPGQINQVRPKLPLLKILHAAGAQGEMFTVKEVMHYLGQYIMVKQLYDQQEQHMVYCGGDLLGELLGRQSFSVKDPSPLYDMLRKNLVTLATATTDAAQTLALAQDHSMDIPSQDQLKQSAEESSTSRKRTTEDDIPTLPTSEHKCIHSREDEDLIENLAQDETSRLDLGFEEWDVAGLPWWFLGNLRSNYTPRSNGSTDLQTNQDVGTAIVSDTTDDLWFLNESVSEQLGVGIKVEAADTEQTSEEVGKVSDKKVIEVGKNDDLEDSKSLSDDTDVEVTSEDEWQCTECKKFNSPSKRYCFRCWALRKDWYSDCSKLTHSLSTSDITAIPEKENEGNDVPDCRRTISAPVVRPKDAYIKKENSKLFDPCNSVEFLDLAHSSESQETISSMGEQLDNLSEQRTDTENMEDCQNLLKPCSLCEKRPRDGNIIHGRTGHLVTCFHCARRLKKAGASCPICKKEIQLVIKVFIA
UniProt P27361, whole entry: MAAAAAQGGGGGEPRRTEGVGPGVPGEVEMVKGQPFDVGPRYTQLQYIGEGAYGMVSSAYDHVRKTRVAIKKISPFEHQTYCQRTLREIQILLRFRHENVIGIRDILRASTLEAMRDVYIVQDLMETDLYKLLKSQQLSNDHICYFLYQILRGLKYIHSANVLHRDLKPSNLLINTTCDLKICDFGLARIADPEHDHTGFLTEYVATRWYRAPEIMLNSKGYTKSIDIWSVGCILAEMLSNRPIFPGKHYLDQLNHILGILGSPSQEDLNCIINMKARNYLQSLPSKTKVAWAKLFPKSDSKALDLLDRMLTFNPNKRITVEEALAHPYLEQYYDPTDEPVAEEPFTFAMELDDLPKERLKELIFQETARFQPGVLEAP
UniProt Q8N9N7: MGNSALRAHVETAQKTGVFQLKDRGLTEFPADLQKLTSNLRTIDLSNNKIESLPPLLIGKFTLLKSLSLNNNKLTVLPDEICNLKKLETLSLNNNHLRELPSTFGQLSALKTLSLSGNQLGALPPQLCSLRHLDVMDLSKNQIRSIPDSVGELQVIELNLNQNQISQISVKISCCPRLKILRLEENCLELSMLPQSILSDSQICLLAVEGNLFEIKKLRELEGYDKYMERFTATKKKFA
UniProt Q9NZV6, whole entry: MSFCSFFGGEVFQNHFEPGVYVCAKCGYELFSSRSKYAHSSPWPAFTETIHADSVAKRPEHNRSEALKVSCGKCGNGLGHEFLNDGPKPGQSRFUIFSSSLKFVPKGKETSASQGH
UniProt Q9NZB8: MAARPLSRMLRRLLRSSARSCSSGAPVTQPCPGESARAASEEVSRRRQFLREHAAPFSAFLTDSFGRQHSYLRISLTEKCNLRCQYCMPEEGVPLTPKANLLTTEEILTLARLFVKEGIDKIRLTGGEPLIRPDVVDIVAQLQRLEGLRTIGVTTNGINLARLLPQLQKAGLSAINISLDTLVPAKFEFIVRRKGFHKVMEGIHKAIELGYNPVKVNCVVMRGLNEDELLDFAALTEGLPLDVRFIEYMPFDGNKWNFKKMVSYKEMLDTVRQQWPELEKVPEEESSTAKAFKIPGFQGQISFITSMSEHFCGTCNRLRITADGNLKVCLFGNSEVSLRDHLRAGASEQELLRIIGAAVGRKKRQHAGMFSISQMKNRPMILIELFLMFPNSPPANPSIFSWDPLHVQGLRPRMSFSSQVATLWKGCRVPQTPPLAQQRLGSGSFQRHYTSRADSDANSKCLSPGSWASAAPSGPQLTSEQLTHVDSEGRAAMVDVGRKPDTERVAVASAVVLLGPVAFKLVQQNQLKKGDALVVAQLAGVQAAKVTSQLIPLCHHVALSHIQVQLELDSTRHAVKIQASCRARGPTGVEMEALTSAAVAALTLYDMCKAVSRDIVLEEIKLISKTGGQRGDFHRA
UniProt O95983: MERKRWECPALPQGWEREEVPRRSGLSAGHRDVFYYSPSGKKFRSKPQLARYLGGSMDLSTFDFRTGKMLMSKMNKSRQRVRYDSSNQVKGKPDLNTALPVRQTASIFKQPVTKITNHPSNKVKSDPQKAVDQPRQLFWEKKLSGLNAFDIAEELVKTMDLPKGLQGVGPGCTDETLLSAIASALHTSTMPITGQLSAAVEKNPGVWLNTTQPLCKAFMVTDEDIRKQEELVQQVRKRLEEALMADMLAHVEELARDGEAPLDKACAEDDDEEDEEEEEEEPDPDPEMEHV
UniProt Q9UJ68: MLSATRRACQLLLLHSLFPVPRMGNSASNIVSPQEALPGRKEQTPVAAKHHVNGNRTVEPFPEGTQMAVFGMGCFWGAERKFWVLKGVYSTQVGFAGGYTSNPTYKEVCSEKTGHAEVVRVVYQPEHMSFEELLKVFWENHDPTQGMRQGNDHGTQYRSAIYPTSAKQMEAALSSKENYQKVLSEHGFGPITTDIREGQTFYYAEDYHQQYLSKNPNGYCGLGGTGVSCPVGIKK
UniProt P29372, whole entry: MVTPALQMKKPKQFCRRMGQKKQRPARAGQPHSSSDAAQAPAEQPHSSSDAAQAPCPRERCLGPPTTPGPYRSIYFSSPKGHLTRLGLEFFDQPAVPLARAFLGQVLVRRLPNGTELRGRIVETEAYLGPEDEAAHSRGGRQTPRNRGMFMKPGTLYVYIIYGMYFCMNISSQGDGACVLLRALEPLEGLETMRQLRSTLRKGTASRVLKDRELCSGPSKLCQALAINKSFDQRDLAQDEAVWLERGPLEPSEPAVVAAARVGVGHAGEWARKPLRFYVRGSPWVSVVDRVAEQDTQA

compound: Nc1nc2c(ncn2[C@@H]2O[C@H](COP(=O)(O)OP(=O)(O)OP(=O)(O)O)[C@@H](O)[C@H]2O)c(=O)[nH]1; test: dose-dependent thermal stabilisation call (2D-TPP, DLPTP, 10% FDR) (binary (1 = stabilised)); higher = stabilised by the compound; settings: system: Jurkat gel-filtered lysate; concentration range 1-500 µM
Procedure: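 2D thermal proteome profiling in gel-filtered Jurkat E6.1 lysate (2 mg/ml) treated with NaGTP (0, 1, 10, 100, 500 uM) for 10 min at room temperature, then heated 3 min at one of 12 temperatures (42-63.9 C). Soluble protein was quantified by TMT10 MS. The value is the DLPTP call of the paper: dose-dependent thermal stabilisation over all temperatures at 10% FDR (F-test of a dose-response against a flat model); one experiment, one call per tested protein.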

Target | dose-dependent thermal stabilisation call
MTMR6 (UniProt Q9Y217) | active: 1
LRRFIP1 (UniProt Q32MZ4) | inactive: 0
MAP2K6 (UniProt P52564) | active: 1
MAPK14 (UniProt Q16539) | active: 1
MYDGF (UniProt Q969H8) | inactive: 0
MOB3A (UniProt Q96BX8) | inactive: 0
MPRIP (UniProt Q6WCQ1) | inactive: 0
MED24 (UniProt O75448) | inactive: 0
MVD (UniProt P53602) | inactive: 0
MTHFSD (UniProt Q2M296) | active: 1
LSM2 (UniProt Q9Y333) | inactive: 0
LSM3 (UniProt P62310) | inactive: 0
MRPS36 (UniProt P82909) | inactive: 0
MED4 (UniProt Q9NPJ6) | inactive: 0
MINK1 (UniProt Q8N4C8) | inactive: 0
MOB1A (UniProt Q9H8S9) | inactive: 0
LRRC20 (UniProt Q8TCA0) | inactive: 0
MTOR (UniProt P42345) | inactive: 0
LRPPRC (UniProt P42704) | active: 1
METTL2B (UniProt Q6P1Q9) | inactive: 0

Pulled one by one from above, three records:
Target | dose-dependent thermal stabilisation call
LRPPRC (UniProt P42704) | active: 1
MTOR (UniProt P42345) | inactive: 0
MPRIP (UniProt Q6WCQ1) | inactive: 0

Additional results.

Target | dose-dependent thermal stabilisation call
MYL6B (UniProt P14649) | inactive: 0
MEF2A (UniProt Q02078) | inactive: 0
MDM4 (UniProt O15151) | inactive: 0
MVB12B (UniProt Q9H7P6) | active: 1
MAPK3 (UniProt P27361) | inactive: 0
LRRC57 (UniProt Q8N9N7) | inactive: 0
MAP2K2 (UniProt P36507) | active: 1
MUT (UniProt P22033) | active: 1
MIOS (UniProt Q9NXC5) | inactive: 0
MAT1A (UniProt Q00266) | inactive: 0
MSRB1 (UniProt Q9NZV6) | inactive: 0
ME2 (UniProt P23368) | inactive: 0
MOCS1 (UniProt Q9NZB8) | inactive: 0
MDM2 (UniProt Q00987) | inactive: 0
MBNL1 (UniProt Q9NR56) | inactive: 0
MBLAC1 (UniProt A4D2B0) | inactive: 0
MRPS23 (UniProt Q9Y3D9) | inactive: 0
MBD3 (UniProt O95983) | inactive: 0
MSRA (UniProt Q9UJ68) | inactive: 0
MPG (UniProt P29372) | inactive: 0
